Data reported in US20180086804A1 (COMMISSARIAT A L ENERGIE ATOMIQUE ET AUX ENERGIES …, published 2018).

Tests used:
Assay in all cases: competition ELISA
[1] = target: T1, HLA-DR15 (HLA-DRB1*15:01) (human)
T1 construct: mature; purified from homozygous EBV-transformed lymphoblastoid cells with antibody L243

HLA-DR3 (HLA-DRB1*03:01) = target: T2, HLA-DR3 (HLA-DRB1*03:01) (human)
T2 construct: mature; purified from homozygous EBV-transformed lymphoblastoid cells with antibody L243

HLA-DR1 (HLA-DRB1*01:01) = target: T3, HLA-DR1 (HLA-DRB1*01:01) (human)
T3 construct: mature; class II HLA molecule purified from homozygous EBV-transformed lymphoblastoid cells with antibody L243

HLA-DR4 (HLA-DRB1*04:01) = target: T4, HLA-DR4 (HLA-DRB1*04:01) (human)
T4 construct: mature; purified from homozygous EBV-transformed lymphoblastoid cells with antibody L243

HLA-DR7 (HLA-DRB1*07:01) = target: T5, HLA-DR7 (HLA-DRB1*07:01) (human)
T5 construct: mature; purified from homozygous EBV-transformed lymphoblastoid cells with antibody L243

[2] = target: T6, HLA-DRB4 (HLA-DRB4*01:01) (human)
T6 construct: mature; purified from homozygous EBV-transformed lymphoblastoid cells with antibody L243

[3] = target: T7, HLA-DRB3 (HLA-DRB3*01:01) (human)
T7 construct: mature; purified from homozygous EBV-transformed lymphoblastoid cells with antibody L243

[4] = target: T8, HLA-DR11 (HLA-DRB1*11:01) (human)
T8 construct: mature; purified from homozygous EBV-transformed lymphoblastoid cells with antibody L243

[5] = target: T9, HLA-DR13 (HLA-DRB1*13:01) (human)
T9 construct: mature; purified from homozygous EBV-transformed lymphoblastoid cells with antibody L243

[6] = target: T10, HLA-DRB5 (HLA-DRB5*01:01) (human)
T10 construct: mature; purified from homozygous EBV-transformed lymphoblastoid cells with antibody L243

| Binder | binding [1] | binding (HLA-DR3 (HLA-DRB1*03:01)) | binding (HLA-DR1 (HLA-DRB1*01:01)) | binding (HLA-DR4 (HLA-DRB1*04:01)) | binding (HLA-DR7 (HLA-DRB1*07:01)) | binding [2] | binding [3] | binding [4] | binding [5] | binding [6] |
| --- | --- | --- | --- | --- | --- | --- | --- | --- | --- | --- |
| NKVSEQLQAKMPMKK (C-terminal amide) [CCNB1 50-64] | no binding (tested: rel. affinity >329) | no binding (tested: rel. affinity >825) | no binding (tested: rel. affinity >11262) | no binding (tested: rel. affinity >1771) | no binding (tested: rel. affinity >1036) | no binding (tested: rel. affinity >961) | no binding (tested: rel. affinity >362) |  |  |  |
| EPVKEEKLSPEPILV (C-terminal amide) [CCNB1 108-122] | no binding (tested: rel. affinity >329) | no binding (tested: rel. affinity >825) |  | no binding (tested: rel. affinity >1771) | no binding (tested: rel. affinity >1036) | no binding (tested: rel. affinity >961) | no binding (tested: rel. affinity >362) | no binding (tested: rel. affinity >1949) | no binding (tested: rel. affinity >1949) | no binding (tested: rel. affinity >3467) |
| EKLSPEPILVDTASP (C-terminal amide) [CCNB1 113-127] | no binding (tested: rel. affinity >329) |  |  |  | no binding (tested: rel. affinity >1036) |  |  | no binding (tested: rel. affinity >1949) | no binding (tested: rel. affinity >1949) | no binding (tested: rel. affinity >3467) |
| SPMETSGCAPAEEDL (C-terminal amide) [CCNB1 128-142] | no binding (tested: rel. affinity >329) | no binding (tested: rel. affinity >825) |  | no binding (tested: rel. affinity >1771) | no binding (tested: rel. affinity >1036) | no binding (tested: rel. affinity >961) | no binding (tested: rel. affinity >362) | no binding (tested: rel. affinity >1949) | no binding (tested: rel. affinity >1949) | no binding (tested: rel. affinity >3467) |
| SKIGEVDVEQHTLAK (C-terminal amide) [CCNB1 310-324] | no binding (tested: rel. affinity >329) |  | no binding (tested: rel. affinity >11262) | no binding (tested: rel. affinity >1771) | no binding (tested: rel. affinity >1036) | no binding (tested: rel. affinity >961) | no binding (tested: rel. affinity >362) |  |  |  |
| GAFCLALKILDNGEW (C-terminal amide) [CCNB1 347-361] |  | no binding (tested: rel. affinity >825) | no binding (tested: rel. affinity >11262) | no binding (tested: rel. affinity >1771) | no binding (tested: rel. affinity >1036) | no binding (tested: rel. affinity >961) | no binding (tested: rel. affinity >362) |  | no binding (tested: rel. affinity >1949) | no binding (tested: rel. affinity >3467) |
| SKINAENKAKINMAG (C-terminal amide) [CCNB1 9-23] | no binding (tested: rel. affinity >329) |  | no binding (tested: rel. affinity >11262) | no binding (tested: rel. affinity >1771) | no binding (tested: rel. affinity >1036) | no binding (tested: rel. affinity >961) | no binding (tested: rel. affinity >362) |  |  |  |

No constants are given. Whether binding was seen depends on the method and setting.
